Some of the results follow.
Compound: Cc1ccc(NC(=O)c2ccc(CN3CC[C@H](N(C)C)C3)c(C(F)(F)F)c2)cc1Nc1nccc(-c2cncnc2)n1 [bafetinib]
Assay: log2 fold change, soluble protein after heating vs DMSO (PISA); higher = thermal stabilisation; K562 lysate, 10 uM; active = over 0.2 and 3.5 SD of the protein, either way, in both replicates (recomputed)
Procedure, shortened: (§1)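 Values give the log-two fold change in thermal stability against solvent controls, from duplicates. Crude K562 extract at 1 mg/mL protein, made by dounce homogenisation in PBS pH 7.4 with 1 mM MgCl2, was treated with 10 μM compound for 30 min. After 3 min heating across 48°C-58°C, aliquots were pooled, adjusted to 0.5% NP-40 at 4°C and centrifuged at 21,000xg for 90 min. The supernatant was measured by TMTpro 16plex LC-MS/MS with channel sums equalised.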

The chains behind the UniProt entries cited, without tags or fusion partners. Where a name states a change or a piece, a line headed by the entry shows the natural chain unless it says otherwise.
UniProt Q11206: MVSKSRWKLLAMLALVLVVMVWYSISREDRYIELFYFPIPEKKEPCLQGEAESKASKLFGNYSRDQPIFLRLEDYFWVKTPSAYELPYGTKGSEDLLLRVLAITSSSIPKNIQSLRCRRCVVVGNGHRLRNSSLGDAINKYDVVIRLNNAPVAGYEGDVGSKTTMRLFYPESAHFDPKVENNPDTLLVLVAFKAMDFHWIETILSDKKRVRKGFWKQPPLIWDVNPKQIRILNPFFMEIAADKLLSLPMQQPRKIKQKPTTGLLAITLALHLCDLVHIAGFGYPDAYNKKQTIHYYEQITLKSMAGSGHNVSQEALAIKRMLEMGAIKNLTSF
UniProt Q7Z698: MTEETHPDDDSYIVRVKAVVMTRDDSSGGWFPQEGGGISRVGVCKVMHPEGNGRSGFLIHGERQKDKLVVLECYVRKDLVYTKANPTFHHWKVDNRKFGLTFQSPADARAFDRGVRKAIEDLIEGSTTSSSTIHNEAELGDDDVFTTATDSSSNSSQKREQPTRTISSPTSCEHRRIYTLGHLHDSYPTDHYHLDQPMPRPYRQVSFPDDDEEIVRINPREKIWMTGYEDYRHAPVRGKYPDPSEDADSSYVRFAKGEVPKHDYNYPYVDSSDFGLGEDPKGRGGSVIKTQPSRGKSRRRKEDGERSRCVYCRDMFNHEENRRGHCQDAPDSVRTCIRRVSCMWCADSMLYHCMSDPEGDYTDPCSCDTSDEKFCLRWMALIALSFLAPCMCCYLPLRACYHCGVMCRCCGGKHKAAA
UniProt O95793: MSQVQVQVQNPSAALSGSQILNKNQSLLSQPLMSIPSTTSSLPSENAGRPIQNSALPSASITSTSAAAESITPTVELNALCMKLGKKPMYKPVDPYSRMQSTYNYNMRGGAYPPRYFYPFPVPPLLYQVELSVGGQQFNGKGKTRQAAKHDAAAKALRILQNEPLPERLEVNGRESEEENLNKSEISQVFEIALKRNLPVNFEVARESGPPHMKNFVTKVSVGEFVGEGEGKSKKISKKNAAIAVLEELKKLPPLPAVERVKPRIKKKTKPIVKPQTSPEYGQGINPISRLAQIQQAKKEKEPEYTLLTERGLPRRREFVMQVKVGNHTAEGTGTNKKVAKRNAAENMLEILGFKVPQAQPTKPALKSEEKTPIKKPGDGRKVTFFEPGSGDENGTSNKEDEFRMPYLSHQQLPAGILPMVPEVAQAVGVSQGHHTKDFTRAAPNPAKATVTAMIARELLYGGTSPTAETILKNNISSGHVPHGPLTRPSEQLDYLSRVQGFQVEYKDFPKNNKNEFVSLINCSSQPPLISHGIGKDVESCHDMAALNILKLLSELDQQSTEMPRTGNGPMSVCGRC
UniProt O75177, whole entry, looked up: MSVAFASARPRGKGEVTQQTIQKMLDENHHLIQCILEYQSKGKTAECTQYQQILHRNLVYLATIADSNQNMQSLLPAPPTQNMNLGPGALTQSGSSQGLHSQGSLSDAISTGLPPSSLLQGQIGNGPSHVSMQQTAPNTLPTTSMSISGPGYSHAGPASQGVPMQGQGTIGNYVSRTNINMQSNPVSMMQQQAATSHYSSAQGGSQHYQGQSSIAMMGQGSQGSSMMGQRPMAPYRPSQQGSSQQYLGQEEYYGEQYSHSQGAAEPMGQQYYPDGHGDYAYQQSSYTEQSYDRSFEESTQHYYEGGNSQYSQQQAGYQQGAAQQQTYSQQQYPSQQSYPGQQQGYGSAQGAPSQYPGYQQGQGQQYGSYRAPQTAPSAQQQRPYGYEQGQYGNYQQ
UniProt Q68D10: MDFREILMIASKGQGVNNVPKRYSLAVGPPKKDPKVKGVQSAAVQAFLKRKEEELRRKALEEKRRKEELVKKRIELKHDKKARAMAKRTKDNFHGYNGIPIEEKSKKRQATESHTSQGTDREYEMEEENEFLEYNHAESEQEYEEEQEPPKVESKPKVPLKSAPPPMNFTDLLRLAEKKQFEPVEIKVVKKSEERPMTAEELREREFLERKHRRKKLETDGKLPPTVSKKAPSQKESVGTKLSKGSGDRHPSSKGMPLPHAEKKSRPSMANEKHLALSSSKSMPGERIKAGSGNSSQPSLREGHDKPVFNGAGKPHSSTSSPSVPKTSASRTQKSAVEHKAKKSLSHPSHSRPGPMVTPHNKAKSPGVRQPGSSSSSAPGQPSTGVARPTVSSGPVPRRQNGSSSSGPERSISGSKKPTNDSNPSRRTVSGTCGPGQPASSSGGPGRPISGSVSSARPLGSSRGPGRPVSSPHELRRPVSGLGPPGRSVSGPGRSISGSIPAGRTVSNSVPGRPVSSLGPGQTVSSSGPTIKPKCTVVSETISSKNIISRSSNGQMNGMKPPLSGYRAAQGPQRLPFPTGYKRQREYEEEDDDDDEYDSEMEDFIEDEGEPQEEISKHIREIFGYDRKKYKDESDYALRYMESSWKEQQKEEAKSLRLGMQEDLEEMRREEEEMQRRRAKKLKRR
UniProt Q9NSC7: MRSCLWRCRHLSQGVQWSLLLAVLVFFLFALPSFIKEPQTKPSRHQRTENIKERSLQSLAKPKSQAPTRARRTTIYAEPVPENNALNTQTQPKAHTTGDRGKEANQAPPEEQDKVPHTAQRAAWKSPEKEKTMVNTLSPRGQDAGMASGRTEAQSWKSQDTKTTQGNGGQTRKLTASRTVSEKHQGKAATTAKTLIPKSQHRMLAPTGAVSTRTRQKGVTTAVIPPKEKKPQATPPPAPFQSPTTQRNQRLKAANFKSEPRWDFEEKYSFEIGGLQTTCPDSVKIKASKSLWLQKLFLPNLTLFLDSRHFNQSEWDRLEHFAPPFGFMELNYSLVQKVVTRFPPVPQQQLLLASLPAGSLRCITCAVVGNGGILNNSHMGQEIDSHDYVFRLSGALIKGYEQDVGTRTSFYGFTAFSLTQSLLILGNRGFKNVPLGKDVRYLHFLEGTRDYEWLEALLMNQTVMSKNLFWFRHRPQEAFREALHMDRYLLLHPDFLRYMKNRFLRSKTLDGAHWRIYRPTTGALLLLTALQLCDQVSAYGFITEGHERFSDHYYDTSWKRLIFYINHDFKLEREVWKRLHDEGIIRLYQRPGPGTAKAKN
UniProt Q9C0H9: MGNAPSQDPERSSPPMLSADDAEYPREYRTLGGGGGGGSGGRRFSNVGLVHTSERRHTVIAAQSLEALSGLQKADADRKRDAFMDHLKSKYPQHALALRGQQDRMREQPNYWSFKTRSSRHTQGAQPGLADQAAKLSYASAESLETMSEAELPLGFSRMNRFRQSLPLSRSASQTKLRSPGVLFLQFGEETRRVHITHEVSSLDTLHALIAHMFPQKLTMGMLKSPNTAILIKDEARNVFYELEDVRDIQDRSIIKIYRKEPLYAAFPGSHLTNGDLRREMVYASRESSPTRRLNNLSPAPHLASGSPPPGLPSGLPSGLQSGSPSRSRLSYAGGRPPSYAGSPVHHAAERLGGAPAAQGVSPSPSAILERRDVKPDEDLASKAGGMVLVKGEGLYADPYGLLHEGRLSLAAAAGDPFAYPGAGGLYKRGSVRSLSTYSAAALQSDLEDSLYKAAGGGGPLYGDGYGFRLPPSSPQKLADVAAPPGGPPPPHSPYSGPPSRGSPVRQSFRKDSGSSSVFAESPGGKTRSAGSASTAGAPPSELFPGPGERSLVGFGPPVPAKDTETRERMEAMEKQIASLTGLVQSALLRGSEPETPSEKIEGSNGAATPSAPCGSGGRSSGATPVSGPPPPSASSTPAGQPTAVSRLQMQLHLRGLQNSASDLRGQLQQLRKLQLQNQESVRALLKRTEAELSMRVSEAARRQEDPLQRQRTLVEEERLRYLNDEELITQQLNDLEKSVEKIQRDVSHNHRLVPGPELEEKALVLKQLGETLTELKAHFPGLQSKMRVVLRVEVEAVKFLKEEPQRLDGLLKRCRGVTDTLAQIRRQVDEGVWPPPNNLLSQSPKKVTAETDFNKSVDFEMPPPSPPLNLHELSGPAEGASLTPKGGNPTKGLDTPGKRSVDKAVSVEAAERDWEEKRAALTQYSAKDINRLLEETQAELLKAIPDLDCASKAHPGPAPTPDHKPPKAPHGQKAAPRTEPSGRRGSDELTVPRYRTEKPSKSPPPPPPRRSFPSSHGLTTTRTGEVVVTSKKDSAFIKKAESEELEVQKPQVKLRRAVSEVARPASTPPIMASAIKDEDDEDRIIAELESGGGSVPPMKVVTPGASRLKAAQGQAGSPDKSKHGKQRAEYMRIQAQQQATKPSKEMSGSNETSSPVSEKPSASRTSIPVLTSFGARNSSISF
UniProt Q96DR4, whole entry, looked up: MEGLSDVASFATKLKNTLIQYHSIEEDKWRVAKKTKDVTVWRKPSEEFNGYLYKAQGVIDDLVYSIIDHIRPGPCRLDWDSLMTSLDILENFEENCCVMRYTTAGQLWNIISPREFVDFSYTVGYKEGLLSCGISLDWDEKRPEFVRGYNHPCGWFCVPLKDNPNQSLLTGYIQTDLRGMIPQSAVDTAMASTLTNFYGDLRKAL
UniProt Q16384, whole entry, looked up: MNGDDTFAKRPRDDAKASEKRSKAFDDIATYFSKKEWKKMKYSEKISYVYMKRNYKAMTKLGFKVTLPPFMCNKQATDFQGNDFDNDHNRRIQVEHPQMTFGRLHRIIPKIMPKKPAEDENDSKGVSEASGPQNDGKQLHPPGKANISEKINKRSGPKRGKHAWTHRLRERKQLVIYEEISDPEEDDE
UniProt Q9Y2D8: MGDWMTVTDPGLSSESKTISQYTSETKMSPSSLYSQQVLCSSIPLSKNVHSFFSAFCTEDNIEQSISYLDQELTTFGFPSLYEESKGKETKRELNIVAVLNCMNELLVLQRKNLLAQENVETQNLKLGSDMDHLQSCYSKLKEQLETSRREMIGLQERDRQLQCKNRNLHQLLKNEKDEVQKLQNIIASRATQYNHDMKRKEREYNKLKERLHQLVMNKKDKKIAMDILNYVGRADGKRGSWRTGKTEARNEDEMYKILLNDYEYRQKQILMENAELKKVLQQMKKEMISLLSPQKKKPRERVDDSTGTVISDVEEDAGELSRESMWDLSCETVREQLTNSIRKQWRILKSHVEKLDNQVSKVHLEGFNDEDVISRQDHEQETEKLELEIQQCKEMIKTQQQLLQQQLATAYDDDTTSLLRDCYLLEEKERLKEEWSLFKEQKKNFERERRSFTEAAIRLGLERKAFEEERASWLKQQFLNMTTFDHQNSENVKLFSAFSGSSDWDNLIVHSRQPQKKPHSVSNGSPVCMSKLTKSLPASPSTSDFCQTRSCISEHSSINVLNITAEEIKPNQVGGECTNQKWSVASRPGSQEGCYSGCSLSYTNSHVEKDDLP
UniProt Q8N0Z3: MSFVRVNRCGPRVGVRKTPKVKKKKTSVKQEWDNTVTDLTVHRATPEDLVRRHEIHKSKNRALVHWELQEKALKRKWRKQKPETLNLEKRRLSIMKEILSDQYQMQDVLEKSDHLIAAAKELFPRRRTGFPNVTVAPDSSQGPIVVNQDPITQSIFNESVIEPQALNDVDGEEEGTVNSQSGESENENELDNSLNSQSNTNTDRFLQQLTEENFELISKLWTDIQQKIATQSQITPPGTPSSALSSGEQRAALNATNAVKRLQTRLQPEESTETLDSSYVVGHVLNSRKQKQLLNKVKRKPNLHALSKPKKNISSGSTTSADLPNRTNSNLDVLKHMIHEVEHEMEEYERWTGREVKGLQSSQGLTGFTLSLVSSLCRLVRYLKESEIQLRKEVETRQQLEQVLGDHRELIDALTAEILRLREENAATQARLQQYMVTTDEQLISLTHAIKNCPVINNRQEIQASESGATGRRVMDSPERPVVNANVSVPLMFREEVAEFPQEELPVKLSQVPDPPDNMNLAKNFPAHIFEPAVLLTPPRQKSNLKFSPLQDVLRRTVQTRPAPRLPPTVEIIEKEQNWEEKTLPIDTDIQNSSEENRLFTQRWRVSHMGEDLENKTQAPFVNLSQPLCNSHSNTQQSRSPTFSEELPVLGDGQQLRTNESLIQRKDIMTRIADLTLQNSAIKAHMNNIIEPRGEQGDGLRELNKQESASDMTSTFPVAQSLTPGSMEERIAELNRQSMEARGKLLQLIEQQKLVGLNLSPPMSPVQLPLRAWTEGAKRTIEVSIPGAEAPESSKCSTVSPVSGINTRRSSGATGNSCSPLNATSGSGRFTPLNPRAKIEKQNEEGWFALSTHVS
UniProt Q5T280: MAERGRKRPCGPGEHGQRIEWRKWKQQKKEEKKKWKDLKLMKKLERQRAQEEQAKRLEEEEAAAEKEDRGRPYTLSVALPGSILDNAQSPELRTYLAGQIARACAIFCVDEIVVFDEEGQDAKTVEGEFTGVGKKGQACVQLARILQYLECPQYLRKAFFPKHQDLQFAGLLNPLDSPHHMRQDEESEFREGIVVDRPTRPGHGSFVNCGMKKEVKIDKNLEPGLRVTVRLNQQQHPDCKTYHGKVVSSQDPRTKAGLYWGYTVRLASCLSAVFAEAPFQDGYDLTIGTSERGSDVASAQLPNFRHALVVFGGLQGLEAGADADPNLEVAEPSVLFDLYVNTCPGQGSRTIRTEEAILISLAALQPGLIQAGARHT

log2 fold change, inactive:
STARD8 isoform 2 (UniProt Q92502) -0.23
ST3GAL4 isoform 4 (UniProt Q11206) 0.019
SPRED2 (UniProt Q7Z698) -0.076
STAU1 isoform 3 (UniProt O95793) -0.086
SS18L1 (UniProt O75177) 0.181
SSBP4 (UniProt U3KPY3) -0.016
SPTY2D1 (UniProt Q68D10) -0.286
SPTAN1 isoform 3 (UniProt Q13813) 0.171
SPRYD3 (UniProt Q8NCJ5) -0.024
ST6GALNAC1 (UniProt Q9NSC7) 0.01

Compound: Cc1cccc(CC(=O)N2CCc3c2ccc(-c2cn(C)c4ncnc(N)c24)c3F)n1
Assay: as above
Procedure, shortened: as §1

log2 fold change, inactive:
ST3GAL4 isoform 4 (UniProt Q11206) 0.121
SSBP2 (UniProt P81877) -0.097
SRCIN1 (UniProt Q9C0H9) 0.077
STAU1 isoform 3 (UniProt O95793) 0.078
STARD4 (UniProt Q96DR4) 0.025
SS18L1 (UniProt O75177) 0.062
SSBP4 (UniProt U3KPY3) -0.053
SPIN4 (UniProt Q56A73) -0.086
SPTY2D1 (UniProt Q68D10) 0.015
SSX1 (UniProt Q16384) 0.266
SSX2IP (UniProt Q9Y2D8) -0.01
SPRYD3 (UniProt Q8NCJ5) 0.194
SRRD (UniProt Q9UH36) 0.18
STAR (UniProt P49675) 0.142
ST6GALNAC1 (UniProt Q9NSC7) 0.035
SPC24 (UniProt K7ESQ2) -0.006

Compound: Cc1cn(-c2cc(NC(=O)c3ccc(C)c(Nc4nccc(-c5cccnc5)n4)c3)cc(C(F)(F)F)c2)cn1 [nilotinib]
Assay: as above
Procedure, shortened: as §1

log2 fold change, inactive:
SPTBN1 isoform 3 (UniProt Q01082) 0.07
ST3GAL4 isoform 4 (UniProt Q11206) -0.238
SPICE1 (UniProt Q8N0Z3) 0.048
SPRED2 (UniProt Q7Z698) -0.049
SRCIN1 (UniProt Q9C0H9) 0.29
STAP1 (UniProt Q9ULZ2) -0.085
STAT1 isoform 2 (UniProt P42224) 0.023
STAU1 isoform 3 (UniProt O95793) -0.051
SPOUT1 (UniProt Q5T280) 0.056
SS18L1 (UniProt O75177) 0
SSBP4 (UniProt U3KPY3) -0.328
SPTY2D1 (UniProt Q68D10) 0.132
SSX2IP (UniProt Q9Y2D8) -0.008
STAR (UniProt P49675) 0.037
ST6GALNAC1 (UniProt Q9NSC7) 0.086

From the supplement of paper PMC10849652
